Chains of the proteins cited; added tags and fusions are not shown. Lines headed by an entry give the natural chain unless they say otherwise; changes in a name come on top.
UniProt Q03135: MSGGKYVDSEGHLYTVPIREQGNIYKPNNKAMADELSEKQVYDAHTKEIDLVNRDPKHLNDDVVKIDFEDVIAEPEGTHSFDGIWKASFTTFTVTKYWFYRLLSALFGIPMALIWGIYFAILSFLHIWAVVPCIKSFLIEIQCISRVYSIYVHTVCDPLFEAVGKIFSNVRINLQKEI
UniProt P04264: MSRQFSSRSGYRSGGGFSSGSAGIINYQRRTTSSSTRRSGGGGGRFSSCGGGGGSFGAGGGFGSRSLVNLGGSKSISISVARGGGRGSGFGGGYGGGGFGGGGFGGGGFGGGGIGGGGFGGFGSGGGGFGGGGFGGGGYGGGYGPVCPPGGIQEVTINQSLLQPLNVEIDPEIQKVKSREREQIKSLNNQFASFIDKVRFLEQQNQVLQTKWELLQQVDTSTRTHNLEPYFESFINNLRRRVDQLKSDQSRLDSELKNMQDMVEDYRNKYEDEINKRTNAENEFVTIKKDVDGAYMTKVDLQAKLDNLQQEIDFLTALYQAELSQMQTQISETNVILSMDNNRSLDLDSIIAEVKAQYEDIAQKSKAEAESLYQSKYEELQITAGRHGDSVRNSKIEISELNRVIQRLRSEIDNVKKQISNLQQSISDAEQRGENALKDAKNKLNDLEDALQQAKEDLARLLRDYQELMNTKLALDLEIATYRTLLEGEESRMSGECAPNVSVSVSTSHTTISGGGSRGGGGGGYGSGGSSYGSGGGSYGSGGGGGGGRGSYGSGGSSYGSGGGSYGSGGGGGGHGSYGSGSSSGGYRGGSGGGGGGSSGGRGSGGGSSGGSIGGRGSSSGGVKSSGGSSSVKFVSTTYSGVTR
UniProt O43795: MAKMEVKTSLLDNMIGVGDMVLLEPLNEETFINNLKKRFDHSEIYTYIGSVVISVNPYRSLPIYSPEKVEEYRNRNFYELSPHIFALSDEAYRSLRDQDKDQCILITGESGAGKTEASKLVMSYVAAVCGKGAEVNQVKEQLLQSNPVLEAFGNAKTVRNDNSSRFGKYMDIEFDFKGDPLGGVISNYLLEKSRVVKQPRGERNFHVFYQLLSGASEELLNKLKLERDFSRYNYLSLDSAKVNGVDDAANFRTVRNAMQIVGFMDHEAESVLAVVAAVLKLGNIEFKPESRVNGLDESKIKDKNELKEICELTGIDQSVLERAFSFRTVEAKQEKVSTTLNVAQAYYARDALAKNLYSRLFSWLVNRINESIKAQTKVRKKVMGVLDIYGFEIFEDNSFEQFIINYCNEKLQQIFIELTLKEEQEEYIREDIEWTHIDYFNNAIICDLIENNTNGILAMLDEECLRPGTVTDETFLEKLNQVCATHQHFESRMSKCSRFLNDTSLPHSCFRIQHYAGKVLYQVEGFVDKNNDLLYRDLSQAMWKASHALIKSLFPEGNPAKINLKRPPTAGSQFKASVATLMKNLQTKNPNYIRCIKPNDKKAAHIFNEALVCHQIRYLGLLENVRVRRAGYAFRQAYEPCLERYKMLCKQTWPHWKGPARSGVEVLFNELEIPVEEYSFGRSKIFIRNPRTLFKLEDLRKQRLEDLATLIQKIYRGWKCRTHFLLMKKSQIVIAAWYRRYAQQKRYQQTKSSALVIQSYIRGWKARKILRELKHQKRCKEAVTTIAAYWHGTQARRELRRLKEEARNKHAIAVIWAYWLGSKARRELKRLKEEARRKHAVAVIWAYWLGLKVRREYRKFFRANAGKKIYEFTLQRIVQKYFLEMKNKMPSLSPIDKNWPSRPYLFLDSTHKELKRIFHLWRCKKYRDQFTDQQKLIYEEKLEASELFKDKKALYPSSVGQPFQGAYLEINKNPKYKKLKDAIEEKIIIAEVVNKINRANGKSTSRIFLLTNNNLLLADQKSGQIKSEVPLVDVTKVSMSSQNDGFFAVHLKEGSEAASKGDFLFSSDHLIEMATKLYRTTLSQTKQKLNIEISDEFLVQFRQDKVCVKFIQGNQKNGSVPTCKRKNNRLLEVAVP
UniProt P35579: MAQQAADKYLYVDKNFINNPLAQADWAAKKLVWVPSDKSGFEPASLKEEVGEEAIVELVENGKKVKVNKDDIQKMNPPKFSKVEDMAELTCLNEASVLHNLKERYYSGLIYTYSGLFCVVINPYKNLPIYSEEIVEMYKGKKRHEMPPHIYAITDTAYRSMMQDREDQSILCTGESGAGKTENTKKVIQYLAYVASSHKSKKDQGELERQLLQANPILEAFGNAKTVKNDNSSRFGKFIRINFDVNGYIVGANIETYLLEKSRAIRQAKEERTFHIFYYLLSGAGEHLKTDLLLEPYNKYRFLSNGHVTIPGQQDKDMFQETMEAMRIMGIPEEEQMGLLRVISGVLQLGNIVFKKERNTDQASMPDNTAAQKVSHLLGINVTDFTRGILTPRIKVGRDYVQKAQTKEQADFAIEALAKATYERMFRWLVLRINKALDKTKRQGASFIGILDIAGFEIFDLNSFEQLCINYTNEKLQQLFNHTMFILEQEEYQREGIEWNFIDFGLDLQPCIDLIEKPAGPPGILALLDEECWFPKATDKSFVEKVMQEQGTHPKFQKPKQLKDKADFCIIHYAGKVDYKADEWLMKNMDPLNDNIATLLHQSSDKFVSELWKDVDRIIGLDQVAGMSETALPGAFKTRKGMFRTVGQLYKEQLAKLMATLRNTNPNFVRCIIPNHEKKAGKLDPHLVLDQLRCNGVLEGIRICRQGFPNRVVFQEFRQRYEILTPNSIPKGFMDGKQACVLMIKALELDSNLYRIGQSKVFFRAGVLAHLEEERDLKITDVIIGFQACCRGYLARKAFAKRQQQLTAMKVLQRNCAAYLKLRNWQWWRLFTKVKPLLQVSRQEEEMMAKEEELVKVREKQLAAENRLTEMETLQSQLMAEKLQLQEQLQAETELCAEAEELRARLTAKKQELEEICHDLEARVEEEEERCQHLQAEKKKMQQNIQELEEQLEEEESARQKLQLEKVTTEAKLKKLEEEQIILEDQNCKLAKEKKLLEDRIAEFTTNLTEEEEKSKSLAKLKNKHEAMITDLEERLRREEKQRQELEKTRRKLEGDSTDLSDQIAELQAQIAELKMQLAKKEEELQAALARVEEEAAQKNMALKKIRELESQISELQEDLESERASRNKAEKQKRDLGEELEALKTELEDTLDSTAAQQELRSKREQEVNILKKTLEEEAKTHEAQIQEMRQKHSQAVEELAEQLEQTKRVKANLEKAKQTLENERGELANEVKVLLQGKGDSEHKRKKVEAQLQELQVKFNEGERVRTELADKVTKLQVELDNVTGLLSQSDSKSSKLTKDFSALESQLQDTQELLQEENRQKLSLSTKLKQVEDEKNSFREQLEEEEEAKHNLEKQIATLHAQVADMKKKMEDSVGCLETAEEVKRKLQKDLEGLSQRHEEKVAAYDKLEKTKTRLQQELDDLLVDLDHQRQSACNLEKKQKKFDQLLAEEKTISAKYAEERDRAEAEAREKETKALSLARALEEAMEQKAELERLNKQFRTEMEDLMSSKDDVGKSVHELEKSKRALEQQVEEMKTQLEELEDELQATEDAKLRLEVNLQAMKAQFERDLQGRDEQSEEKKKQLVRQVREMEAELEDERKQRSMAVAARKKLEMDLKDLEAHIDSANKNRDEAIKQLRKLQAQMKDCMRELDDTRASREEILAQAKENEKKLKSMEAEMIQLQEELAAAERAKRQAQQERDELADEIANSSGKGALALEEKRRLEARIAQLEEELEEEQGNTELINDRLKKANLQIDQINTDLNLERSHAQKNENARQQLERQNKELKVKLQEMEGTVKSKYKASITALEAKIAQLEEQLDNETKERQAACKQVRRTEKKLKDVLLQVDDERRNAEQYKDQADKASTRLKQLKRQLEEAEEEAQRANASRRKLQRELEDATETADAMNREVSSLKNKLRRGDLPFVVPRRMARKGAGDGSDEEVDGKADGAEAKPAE

In article PMC3662692:

These molecules were tested against biotin-labeled Cav1 peptide, amino acid residues 7-21, phosphorylated at Tyr14 (UniProt Q03135) (assay: affinity purification with mass spectrometry; biotin-labeled Cav1 peptides (residues 7-21, with or without phosphorylated Tyr14) as bait, streptavidin-agarose pull-down from AGS cell lysates, SDS-PAGE, silver staining, Maldi-MS/MS of bands enriched with the pY14 peptide; only the target purified).

binding | Molecule
binds | cytokeratin 1 (from UniProt P04264 1-644)
binds | myosin IB (from UniProt O43795 1-1136)
binds | non muscle myosin heavy chain IIA (from UniProt P35579 1-1960)
binds | myosin ID (protein, UniProt O94832 1-1006) MAEQESLEFGKADFVLMDTVSMPEFMANLRLRFEKGRIYTFIGEVVVSVNPYKLLNIYGRDTIEQYKGRELYERPPHLFAIADAAYKAMKRRSKDTCIVISGESGAGKTEASKYIMQYIAAITNPSQRAEVERVKNMLLKSNCVLEAFGNAKTNRNDNSSRFGKYMDINFDFKGDPIGGHINNYLLEKSRVIVQQPGERSFHSFYQLLQGGSEQMLRSLHLQKSLSSYNYIHVGAQLKSSINDAAEFRVVADAMKVIGFKPEEIQTVYKILAAILHLGNLKFVVDGDTPLIENGKVVSIIAELLSTKTDMVEKALLYRTVATGRDIIDKQHTEQEASYGRDAFAKAIYERLFCWIVTRINDIIEVKNYDTTIHGKNTVIGVLDIYGFEIFDNNSFEQFCINYCNEKLQQLFIQLVLKQEQEEYQREGIPWKHIDYFNNQIIVDLVEQQHKGIIAILDDACMNVGKVTDEMFLEALNSKLGKHAHFSSRKLCASDKILEFDRDFRIRHYAGDVVYSVIGFIDKNKDTLFQDFKRLMYNSSNPVLKNMWPEGKLSITEVTKRPLTAATLFKNSMIALVDNLASKEPYYVRCIKPNDKKSPQIFDDERCRHQVEYLGLLENVRVRRAGFAFRQTYEKFLHRYKMISEFTWPNHDLPSDKEAVKKLIERCGFQDDVAYGKTKIFIRTPRTLFTLEELRAQMLIRIVLFLQKVWRGTLARMRYKRTKAALTIIRYYRRYKVKSYIHEVARRFHGVKTMRDYGKHVKWPSPPKVLRRFEEALQTIFNRWRASQLIKSIPASDLPQVRAKVAAVEMLKGQRADLGLQRAWEGNYLASKPDTPQTSGTFVPVANELKRKDKYMNVLFSCHVRKVNRFSKVEDRAIFVTDRHLYKMDPTKQYKVMKTIPLYNLTGLSVSNGKDQLVVFHTKDNKDLIVCLFSKQPTHESRIGELVGVLVNHFKSEKRHLQVNVTNPVQCSLHGKKCTVSVETRLNQPQPDFTKNRSGFILSVPGN

Results are given in words; binding and its absence hold for the method and conditions named. In cells and extracts the contact can be indirect. A yes stands for co-enrichment or nearness to the bait. Other partners may have been found.
